Patent publication US20190201552
For part of these data: No signal at the amounts used counts as a negative. For part of these data: Where cells or extracts were used, other partners may take part. For part of these data: The exact form of at least one protein or probe is not confirmed.

The chains behind the UniProt entries cited, without tags or fusion partners. Residues count along the entry.
UniProt P21860, 20-1342: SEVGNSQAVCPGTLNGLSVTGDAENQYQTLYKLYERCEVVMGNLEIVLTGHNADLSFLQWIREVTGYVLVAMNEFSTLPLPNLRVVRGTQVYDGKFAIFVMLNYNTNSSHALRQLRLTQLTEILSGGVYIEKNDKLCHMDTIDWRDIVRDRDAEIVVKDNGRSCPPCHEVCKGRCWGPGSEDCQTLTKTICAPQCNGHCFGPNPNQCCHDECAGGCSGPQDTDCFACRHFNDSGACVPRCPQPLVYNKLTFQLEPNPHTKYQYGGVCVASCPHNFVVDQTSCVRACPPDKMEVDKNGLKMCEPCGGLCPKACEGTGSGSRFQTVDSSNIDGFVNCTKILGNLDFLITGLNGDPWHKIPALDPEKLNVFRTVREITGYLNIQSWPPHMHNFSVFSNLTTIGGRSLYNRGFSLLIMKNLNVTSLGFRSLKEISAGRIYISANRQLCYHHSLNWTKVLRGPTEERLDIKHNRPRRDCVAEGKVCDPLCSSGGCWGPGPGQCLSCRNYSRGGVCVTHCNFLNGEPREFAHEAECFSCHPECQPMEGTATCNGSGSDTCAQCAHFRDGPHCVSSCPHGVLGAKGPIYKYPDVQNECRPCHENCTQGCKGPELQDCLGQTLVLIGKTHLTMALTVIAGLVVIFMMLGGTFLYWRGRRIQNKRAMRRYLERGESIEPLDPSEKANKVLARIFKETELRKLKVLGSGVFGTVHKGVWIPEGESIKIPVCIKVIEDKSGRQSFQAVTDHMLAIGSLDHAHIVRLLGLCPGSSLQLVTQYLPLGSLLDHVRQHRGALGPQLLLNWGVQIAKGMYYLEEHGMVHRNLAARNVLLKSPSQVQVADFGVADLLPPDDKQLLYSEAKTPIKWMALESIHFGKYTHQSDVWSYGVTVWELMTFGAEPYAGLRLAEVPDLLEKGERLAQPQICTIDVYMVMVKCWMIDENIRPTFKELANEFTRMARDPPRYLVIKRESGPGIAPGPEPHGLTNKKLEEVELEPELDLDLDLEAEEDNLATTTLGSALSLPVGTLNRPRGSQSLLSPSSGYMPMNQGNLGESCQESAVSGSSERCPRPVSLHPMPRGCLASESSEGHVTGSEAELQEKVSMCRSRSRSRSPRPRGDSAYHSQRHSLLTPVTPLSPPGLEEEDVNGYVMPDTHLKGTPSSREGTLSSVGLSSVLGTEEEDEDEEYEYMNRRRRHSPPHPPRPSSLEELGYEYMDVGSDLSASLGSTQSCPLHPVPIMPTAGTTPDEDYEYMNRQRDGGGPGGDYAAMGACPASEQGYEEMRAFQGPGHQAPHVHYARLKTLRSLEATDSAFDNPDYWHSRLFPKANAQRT

Tests used:
[1] = target: HER3 (ERBB3) (Homo sapiens) (UniProt P21860); assay: binding assay; details: 2'-F pyrimidines; CITED Kd of HER3 aptamer, method not stated (Chen et al. 2003); protein on the cell surface; protein details: endogenous on BT474 / SKBR3 cells
[2] = target: HER3 (ERBB3) (Homo sapiens) (UniProt P21860); assay: activity in cells; details: 2'-F pyrimidines, protein on the cell surface, protein details: endogenous on BT474 / SKBR3 cells
[3] = target: HER2 (ERBB2) (Homo sapiens) (UniProt P04626); assay: flow cytometry; details: 2'-F pyrimidines, protein on the cell surface, protein details: endogenous on BT474 / SKBR3 cells, label: Cy5
[4] = target: HER3 (ERBB3) (Homo sapiens) (UniProt P21860); assay: flow cytometry; details: 2'-F pyrimidines; binding to BT474 reduced on HER3 knockdown; affinity comparable with single aptamers; protein on the cell surface; protein details: endogenous on BT474 / SKBR3 cells; label: Cy5
[5] = target: HER2 (ERBB2) (Homo sapiens) (UniProt P04626); assay: activity in cells; details: 2'-F pyrimidines, HER2 protein reduced, protein on the cell surface, protein details: endogenous on BT474 / SKBR3 cells
[6] = target: HER2 (ERBB2) (Homo sapiens) (UniProt P04626); assay: binding assay; details: 2'-F pyrimidines; CITED Kd of HER2 aptamer, method not stated (Kim et al. 2011); protein on the cell surface; protein details: endogenous on BT474 / SKBR3 …; label: Cy5 (binding/uptake assays)

GAAUUCCGCGUGUGCCAGCGAAAGUUGCGUAUGGGUCACAUCGCAGGCACAUGUCAUCUGGGCGGUCCGUUCGGGAUCC [HER3 aptamer (79 nt)]
Kd [1]: 45 nM | functional effect of the aptamer ([2]; 2 uM, 72 h: viability 48% BT474, 65% SKBR3): active

AGCCGCGAGGGGAGGGAUAGGGUAGGGCGCGGCUAAAACCUUAGCAGUCUUAUCUAAUU / GAAUUCCGCGUGUGCCAGCGAAAGUUGCGUAUGGGUCACAUCGCAGGCACAUGUCAUCUGGGCGGUCCGUUCGGGAUCCAAAAUUAGAUAAGACUGCUAAGGCA [H2EH3 (HER2 aptamer-EGFR siRNA-HER3 aptamer chimera)]
binding result ([3]; binding to BT474 reduced on HER2 knockdown, affinity comparable with single aptamers): binds | binding result [4]: binds

AGCCAAACGAGGGGGGAGAGGGTGGGGGCGCCTGAAAACCTTAGCAGTCTTATCTAATT / GAATTCCGCGTGTGCCAGCGAAAGTTGCGTATGGGTCACATCGCACAGGACGTTCATCTGGGCGGTCCGTTCGGGATCCAAAAUUAGAUAAGACUGCUAAGGCA [muH2EH3 (mutant HER2 and HER3 aptamer chimera)]
functional effect of the aptamer ([2]; transcribed RNA, printed as DNA templates, no cytotoxicity and no reduction of HER3 in BT474/SKBR3, dose not given here): not active

AGCCGCGAGGGGAGGGAUAGGGUAGGGCGCGGCUAAAACCUUAGCAGUCUUAUCUAAUU / AGCCGCGAGGGGAGGGATAGGGTAGGGCGCGGCTAAAATTAGATAAGACTGCTAAGGCA [HEH (HER2 aptamer-EGFR siRNA-HER2 aptamer chimera)]
binding result ([3]; transcribed RNA, SEQ:4 is the DNA template of the second strand, Cy5-HEH 2 uM, 37 C 1 h, yeast tRNA and sperm DNA, BT474 all positive, binding correlates with HER2 expression, variant of HER2 aptamer (34 nt)): binds | functional effect of the aptamer ([5]; transcribed RNA, SEQ:4 is the DNA template of the second strand, 1 uM, 72 h: viability reduced 90% in SKBR3 and 85% in BT474, not in HER2-low cells, variant of HER2 aptamer (34 nt)): active

AGCCGCGAGGGGAGGGAUAGGGUAGGGCGCGGCU [HER2 aptamer (34 nt)]
Kd [6]: 3.49 nM | functional effect of the aptamer ([5]; 2 uM, 72 h: viability reduced 40% in SKBR3 and 35% in BT474): active
